From patent publication US11484479B2, “Formulation for the elimination of cariogenic and opportunistic pathogens within the oral cavity” (Research Institute at Nationwide Children's Hospital, priority 2015, dated 2022)
Some entries share one result that the patent states for a list of compounds.

Test system: E. coli
Experiment: Toxic cargo DM assay
Type: cell-based, Escherichia coli
Details: monoculture, 1 min; same volume of toxic cargo without DM (FIG. 8A left)

SMILES: [H]/N=C(\N/C(=N/[H])NCCCCCCNC(=N)NC(=N)Nc1ccc(Cl)cc1)Nc1ccc(Cl)cc1 [CHX, chlorhexidine]
- Percent of E. coli cells killed by toxic cargo without DM: > 90%
